Experimental findings from the supplement of paper PMC12819154, “High-throughput peptide-centric local stability assay extends protein–ligand identification to membrane proteins, tissues and bacteria” (Nature Structural & Molecular Biology, 2025) are described below.

Protein sequences, listed by entry. Tags and fused reporters are not part of them. Lines headed by an entry give the natural chain unless they say otherwise; changes in a name come on top.
UniProt Q8IYN2: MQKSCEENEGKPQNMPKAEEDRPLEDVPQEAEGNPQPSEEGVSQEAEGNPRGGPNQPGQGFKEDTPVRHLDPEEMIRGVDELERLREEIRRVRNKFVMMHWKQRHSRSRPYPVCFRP
UniProt Q8IYJ3: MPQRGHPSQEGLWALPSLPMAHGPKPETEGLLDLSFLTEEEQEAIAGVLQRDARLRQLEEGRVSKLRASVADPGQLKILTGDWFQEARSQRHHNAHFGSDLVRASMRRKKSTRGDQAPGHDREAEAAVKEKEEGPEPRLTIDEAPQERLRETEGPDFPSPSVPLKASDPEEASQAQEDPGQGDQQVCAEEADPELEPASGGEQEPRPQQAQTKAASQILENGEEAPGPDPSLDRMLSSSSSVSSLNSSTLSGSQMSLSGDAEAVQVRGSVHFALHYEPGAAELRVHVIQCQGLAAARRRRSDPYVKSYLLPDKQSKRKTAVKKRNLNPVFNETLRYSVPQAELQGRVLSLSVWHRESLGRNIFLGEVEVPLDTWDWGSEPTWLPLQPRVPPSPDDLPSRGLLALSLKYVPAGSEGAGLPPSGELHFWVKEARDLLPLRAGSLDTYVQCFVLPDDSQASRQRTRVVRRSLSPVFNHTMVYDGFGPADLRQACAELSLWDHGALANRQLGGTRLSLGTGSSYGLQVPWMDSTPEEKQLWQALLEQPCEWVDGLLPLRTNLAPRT
UniProt Q8IWU2: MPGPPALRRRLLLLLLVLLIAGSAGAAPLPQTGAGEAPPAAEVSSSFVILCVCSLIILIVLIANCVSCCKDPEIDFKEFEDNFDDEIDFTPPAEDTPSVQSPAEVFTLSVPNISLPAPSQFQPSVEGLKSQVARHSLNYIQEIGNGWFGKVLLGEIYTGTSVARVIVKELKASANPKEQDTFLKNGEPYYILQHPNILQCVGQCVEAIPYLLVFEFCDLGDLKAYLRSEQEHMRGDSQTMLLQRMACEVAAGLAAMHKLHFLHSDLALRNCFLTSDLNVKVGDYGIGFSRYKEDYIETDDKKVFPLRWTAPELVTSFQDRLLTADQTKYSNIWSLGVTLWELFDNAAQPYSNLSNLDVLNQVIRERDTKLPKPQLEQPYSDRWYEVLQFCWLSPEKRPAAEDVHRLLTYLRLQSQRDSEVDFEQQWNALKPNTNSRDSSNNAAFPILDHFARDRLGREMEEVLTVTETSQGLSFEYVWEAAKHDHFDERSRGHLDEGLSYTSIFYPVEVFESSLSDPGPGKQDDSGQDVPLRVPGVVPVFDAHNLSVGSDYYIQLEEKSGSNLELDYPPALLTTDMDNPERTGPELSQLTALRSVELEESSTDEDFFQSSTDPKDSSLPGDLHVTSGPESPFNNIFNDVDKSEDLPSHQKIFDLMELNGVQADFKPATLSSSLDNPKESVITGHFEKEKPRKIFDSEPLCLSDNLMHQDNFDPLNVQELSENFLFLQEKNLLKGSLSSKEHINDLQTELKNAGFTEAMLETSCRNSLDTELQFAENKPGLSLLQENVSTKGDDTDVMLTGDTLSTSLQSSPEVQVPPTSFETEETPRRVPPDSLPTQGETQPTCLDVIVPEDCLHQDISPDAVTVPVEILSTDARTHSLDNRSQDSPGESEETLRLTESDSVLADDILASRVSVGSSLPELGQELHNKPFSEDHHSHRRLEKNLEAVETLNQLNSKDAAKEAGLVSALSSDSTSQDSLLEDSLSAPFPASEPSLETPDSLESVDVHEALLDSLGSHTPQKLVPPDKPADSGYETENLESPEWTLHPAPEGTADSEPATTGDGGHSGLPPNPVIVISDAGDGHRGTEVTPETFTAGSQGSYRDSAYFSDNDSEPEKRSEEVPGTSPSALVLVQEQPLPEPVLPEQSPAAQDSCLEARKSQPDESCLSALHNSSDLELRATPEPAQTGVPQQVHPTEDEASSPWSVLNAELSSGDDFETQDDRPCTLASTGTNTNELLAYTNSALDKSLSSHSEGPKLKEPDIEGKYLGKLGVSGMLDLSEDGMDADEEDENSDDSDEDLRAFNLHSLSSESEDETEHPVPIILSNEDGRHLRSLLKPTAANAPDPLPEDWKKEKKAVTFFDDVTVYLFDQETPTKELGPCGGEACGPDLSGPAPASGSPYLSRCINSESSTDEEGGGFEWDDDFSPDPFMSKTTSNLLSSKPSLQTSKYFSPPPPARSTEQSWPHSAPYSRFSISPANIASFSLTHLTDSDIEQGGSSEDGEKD
UniProt Q86X83, whole entry: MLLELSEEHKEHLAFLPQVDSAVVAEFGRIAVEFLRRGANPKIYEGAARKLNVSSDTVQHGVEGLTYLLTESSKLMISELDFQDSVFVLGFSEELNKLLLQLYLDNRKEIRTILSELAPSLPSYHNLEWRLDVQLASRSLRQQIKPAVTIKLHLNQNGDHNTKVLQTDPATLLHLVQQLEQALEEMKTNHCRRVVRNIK
UniProt Q86VQ0: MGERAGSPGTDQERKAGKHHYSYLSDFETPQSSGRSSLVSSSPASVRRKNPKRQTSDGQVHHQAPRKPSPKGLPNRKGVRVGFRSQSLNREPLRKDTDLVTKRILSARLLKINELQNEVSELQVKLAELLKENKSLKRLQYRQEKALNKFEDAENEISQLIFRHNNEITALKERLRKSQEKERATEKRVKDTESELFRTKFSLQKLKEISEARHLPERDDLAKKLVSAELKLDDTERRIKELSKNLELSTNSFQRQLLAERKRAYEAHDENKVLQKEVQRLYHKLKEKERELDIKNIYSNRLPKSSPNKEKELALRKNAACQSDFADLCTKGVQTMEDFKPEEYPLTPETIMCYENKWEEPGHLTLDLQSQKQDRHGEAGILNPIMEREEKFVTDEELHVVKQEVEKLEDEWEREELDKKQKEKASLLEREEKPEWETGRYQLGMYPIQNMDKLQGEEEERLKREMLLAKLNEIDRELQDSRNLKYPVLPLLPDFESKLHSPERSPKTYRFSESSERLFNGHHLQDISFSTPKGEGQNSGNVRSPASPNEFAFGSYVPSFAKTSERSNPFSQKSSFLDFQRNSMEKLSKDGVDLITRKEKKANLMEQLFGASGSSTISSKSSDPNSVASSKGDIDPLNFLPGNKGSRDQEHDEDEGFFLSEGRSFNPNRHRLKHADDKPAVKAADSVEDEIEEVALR
UniProt Q8IUQ4: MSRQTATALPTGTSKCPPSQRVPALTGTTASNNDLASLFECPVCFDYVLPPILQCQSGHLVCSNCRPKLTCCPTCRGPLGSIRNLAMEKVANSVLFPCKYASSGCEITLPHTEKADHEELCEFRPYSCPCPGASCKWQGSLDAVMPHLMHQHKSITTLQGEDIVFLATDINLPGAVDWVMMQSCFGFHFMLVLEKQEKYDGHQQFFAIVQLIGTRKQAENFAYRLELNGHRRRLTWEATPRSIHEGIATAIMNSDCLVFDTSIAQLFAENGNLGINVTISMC
UniProt Q86UW9: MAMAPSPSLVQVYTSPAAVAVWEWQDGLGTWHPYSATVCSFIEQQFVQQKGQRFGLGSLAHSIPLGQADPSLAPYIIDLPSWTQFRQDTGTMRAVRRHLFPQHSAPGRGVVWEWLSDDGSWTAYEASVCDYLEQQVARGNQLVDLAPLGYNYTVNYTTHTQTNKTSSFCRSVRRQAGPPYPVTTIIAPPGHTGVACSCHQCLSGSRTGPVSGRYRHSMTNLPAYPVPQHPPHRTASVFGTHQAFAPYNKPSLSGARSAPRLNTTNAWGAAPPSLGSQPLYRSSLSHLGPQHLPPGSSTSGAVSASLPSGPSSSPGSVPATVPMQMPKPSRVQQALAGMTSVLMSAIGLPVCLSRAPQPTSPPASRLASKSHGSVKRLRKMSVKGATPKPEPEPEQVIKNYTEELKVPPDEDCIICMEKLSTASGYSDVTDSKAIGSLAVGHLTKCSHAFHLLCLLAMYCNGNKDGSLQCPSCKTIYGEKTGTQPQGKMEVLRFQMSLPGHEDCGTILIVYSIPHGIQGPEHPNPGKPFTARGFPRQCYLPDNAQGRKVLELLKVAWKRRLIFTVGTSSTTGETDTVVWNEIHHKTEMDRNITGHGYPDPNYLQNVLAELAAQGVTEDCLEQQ
UniProt Q86Z20: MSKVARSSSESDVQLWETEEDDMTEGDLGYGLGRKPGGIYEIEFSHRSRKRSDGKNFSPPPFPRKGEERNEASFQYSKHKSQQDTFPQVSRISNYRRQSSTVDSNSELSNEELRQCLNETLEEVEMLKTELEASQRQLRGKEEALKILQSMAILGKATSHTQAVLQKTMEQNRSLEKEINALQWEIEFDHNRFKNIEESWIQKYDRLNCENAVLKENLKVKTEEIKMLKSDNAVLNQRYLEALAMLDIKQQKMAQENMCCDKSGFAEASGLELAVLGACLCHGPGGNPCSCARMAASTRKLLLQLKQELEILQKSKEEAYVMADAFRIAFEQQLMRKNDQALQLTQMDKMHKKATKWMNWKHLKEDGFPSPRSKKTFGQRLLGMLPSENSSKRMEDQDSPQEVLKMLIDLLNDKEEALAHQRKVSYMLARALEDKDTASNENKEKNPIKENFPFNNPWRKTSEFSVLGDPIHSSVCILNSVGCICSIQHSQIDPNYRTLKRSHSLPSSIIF
UniProt Q8IWB9: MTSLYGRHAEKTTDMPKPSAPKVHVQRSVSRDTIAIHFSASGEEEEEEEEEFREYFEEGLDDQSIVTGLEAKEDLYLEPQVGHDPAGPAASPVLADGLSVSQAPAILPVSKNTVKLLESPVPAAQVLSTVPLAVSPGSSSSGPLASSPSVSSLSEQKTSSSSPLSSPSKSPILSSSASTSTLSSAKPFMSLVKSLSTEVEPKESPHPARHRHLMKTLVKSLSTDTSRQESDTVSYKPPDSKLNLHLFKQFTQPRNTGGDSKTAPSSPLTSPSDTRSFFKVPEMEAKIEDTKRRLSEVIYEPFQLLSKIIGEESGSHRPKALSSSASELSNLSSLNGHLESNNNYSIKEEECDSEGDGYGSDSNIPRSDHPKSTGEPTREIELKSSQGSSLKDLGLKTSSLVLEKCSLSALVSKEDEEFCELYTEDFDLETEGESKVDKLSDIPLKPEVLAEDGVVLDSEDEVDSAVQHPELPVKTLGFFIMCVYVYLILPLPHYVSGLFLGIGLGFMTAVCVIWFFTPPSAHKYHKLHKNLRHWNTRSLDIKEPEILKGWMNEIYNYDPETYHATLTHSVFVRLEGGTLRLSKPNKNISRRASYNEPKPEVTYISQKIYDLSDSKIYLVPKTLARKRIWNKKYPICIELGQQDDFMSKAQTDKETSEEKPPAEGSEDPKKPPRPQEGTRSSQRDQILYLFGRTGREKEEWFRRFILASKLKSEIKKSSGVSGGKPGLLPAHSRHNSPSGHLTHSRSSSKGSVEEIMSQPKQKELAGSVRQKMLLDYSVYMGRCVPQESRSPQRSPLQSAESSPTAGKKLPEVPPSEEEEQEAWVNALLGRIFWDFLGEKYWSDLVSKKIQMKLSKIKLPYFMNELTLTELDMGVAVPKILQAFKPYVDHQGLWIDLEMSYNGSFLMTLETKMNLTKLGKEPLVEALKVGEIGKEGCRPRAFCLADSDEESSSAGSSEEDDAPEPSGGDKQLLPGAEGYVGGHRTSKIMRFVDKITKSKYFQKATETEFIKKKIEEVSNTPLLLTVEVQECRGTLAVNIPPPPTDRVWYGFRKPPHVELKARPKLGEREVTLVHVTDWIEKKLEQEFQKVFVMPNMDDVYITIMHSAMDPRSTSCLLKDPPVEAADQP
UniProt Q86XK2: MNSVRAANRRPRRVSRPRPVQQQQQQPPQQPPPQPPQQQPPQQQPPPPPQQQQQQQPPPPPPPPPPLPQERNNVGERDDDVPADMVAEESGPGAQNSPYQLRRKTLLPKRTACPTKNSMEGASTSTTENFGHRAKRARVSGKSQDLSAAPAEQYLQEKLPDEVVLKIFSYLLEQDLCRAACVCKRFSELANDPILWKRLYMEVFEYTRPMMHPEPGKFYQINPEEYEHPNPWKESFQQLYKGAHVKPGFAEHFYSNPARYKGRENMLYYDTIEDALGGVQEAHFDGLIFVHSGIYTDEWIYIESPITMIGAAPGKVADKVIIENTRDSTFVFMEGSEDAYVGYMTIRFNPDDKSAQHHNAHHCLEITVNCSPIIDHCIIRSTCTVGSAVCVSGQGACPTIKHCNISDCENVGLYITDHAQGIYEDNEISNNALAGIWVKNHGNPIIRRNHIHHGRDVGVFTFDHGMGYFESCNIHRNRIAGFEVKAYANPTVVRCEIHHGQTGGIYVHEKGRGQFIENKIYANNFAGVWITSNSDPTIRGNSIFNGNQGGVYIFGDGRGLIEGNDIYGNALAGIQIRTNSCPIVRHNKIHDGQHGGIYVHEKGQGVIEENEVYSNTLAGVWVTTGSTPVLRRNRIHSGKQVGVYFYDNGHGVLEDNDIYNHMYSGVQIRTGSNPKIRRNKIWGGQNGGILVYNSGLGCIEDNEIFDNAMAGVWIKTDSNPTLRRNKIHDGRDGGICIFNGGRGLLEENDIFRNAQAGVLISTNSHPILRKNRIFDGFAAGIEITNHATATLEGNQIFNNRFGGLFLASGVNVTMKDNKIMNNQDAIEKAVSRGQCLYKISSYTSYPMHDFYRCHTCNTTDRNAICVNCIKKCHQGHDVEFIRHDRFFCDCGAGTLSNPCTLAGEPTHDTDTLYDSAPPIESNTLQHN

The other results are listed elsewhere or left out. Most entries show no effect beyond the scatter of the controls.

Compound in the test: Cc1nc(Nc2ncc(C(=O)Nc3c(C)cccc3Cl)s2)cc(N2CCN(CCO)CC2)n1 [dasatinib]
Nature of the test: log2 fold change of tryptic peptide abundance, ligand vs vehicle (limited proteolysis) (log2 ratio); higher = more trypsin-susceptible (destabilized). As to conditions: ligand concentration: 5 uM; sample: K562 cleared lysate.
In the case of “TCEAL8 (peptide sequence: FVMMHWK, peptide start residue: 96) (UniProt Q8IYN2)”, the log2 fold change is -0.154.

Consider “CDR2L (peptide sequence: GGEEGQGEVK, peptide start residue: 403) (UniProt Q86X02)”, for which the log2 fold change stood at 0.502. Take “PELP1 (peptide sequence: LKLDVGEAMAPPSHR, peptide start residue: 497) (UniProt Q8IZL8)”: the log2 fold change was -0.113. As to “SYTL1 (peptide sequence: LTIDEAPQER, peptide start residue: 139) (UniProt Q8IYJ3)”, the log2 fold change is 0.258. As to “HIPK1 (peptide sequence: VHMYDTVSQIK, peptide start residue: 546) (UniProt Q86Z02)”, the log2 fold change is -0.226. Regarding “UniProt Q86W54 (peptide sequence: NHMSDFR, peptide start residue: 164)”, the log2 fold change is -0.0231. Consider “XRN1 (peptide sequence: EILKIDGSNTVDHKNEIK, peptide start residue: 1361) (UniProt Q8IZH2)”, for which the log2 fold change worked out at 0.759. For “TMEM123 (peptide sequence: TIDEHDAII, peptide start residue: 200) (UniProt Q8N131)” the value was 0.00821; for “RBM12B (peptide sequence: RPLQGEWR, peptide start residue: 685) (UniProt Q8IXT5)”, -0.636; for “LMTK2 (peptide sequence: STEQSWPHSAPYSR, peptide start residue: 1457) (UniProt Q8IWU2)”, -0.332.

For “RBM45 (peptide sequence: SYTEEDLREK, peptide start residue: 130) (UniProt Q8IUH3)”, the log2 fold change stood at 0.358. “COMMD2 (peptide sequence: LDVQLASR, peptide start residue: 131) (UniProt Q86X83)”: the log2 fold change was -0.111. For the target “THNSL1 (peptide sequence: IVGQNSGTSMK, peptide start residue: 173) (UniProt Q8IYQ7)”, the log2 fold change was 0.164. For the target “ASPM (peptide sequence: YAVQVLLNVSKYEK, peptide start residue: 3318) (UniProt Q8IZT6)”, the log2 fold change was -0.664. For “LCA5 (peptide sequence: NLELSTNSFQR, peptide start residue: 245) (UniProt Q86VQ0)”, the log2 fold change came out at 0.616. The same measure for “UniProt Q86V20 (peptide sequence: SCTSEDKVGQSEALSR, peptide start residue: 379)”: 0.297.

For “UniProt Q86UY6 (peptide sequence: FGDSHHSHAGGHCGGCCH, peptide start residue: 220)”, the log2 fold change is -0.364. As to “UniProt Q8IZ26 (peptide sequence: AVTLTNGESSR, peptide start residue: 166)”, the log2 fold change was -0.0576. Take “SIAH1 (peptide sequence: QTATALPTGTSKCPPSQR, peptide start residue: 4) (UniProt Q8IUQ4)”: the log2 fold change came out at 0.105. As to “DTX2 (peptide sequence: TASVFGTHQAFAPYNKPSLSGAR, peptide start residue: 234) (UniProt Q86UW9)”, the log2 fold change is -0.168.

Take “UniProt Q8IWZ8 (peptide sequence: EFLYYRK, peptide start residue: 230)”: the log2 fold change is -0.389. In the case of “UniProt Q86Z20 (peptide sequence: KPGGIYEIEFSHR, peptide start residue: 35)”, the log2 fold change was -0.497.

As to “PROSER1 (peptide sequence: KAVLTEYK, peptide start residue: 15) (UniProt Q86XN7)”, the log2 fold change amounted to 0.517. On to “TEX2 (peptide sequence: ATETEFIKK, peptide start residue: 1003) (UniProt Q8IWB9)”, for which the log2 fold change was found to be 0.398. Turning to “RAVER1 (peptide sequence: VSFCAPGPPGR, peptide start residue: 294) (UniProt Q8IY67)”, the log2 fold change was -0.452.

As to “FBXO11 (peptide sequence: RTACPTKNSMEGASTSTTENFGHR, peptide start residue: 110) (UniProt Q86XK2)”, the log2 fold change is -0.535.

In the case of “PDIK1L (peptide sequence: SQHPNVIHLEECILQK, peptide start residue: 62) (UniProt Q8N165)”, the log2 fold change was -0.191. The same measure for “NOSTRIN (peptide sequence: QVTSVLQQR, peptide start residue: 30) (UniProt Q8IVI9)”: 0.0985.
